Reference: publication PMC9342958
Substitutions are numbered along the chain they refer to. Names and notes keep the numbering of the source. No constants are given. Whether binding was seen depends on the method and setting. Binding seen in cells or lysates may run through a third protein. Some results given as binding are weak or reduced against the parent protein; the word gives no strength. For some of these results: Tags and fused reporters may be left off the sequences shown.

Amino acid sequences for entries named in this document (tags omitted).
UniProt Q9UDY8: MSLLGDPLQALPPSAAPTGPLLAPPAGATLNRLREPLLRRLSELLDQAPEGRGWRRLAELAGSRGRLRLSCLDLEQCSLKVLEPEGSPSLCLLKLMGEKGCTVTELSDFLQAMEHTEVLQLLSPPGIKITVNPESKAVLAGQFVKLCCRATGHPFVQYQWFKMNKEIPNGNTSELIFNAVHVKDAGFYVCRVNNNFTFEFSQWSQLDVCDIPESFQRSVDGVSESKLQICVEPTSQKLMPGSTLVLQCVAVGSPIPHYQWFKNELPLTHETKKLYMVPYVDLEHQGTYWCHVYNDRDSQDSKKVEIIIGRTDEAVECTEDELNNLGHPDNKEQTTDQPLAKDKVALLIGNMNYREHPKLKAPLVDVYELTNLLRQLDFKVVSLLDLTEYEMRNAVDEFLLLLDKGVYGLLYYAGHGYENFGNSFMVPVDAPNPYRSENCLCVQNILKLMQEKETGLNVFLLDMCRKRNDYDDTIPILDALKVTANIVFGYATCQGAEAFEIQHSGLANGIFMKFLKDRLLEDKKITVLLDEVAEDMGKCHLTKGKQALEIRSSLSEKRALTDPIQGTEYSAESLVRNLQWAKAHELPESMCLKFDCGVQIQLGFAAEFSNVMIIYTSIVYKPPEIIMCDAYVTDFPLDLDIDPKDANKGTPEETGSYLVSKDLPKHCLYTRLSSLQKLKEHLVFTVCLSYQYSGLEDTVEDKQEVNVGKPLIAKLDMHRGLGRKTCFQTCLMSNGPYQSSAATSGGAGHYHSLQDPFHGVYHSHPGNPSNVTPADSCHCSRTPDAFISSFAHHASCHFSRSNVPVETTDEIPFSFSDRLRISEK

Legend:
[1] = target: MALT1 full-length fused to mEos3.2 (human) (UniProt Q9UDY8); test: FRET or BRET; DAmFRET in HEK293T cells: protein fused to mEos3.2, 48 hr after transfection, cells fixed in 4% PFA, photoconverted, AmFRET against expression level by flow cytometry
[2] = target: MALT1 full-length fused to mEos3.1 (human) (UniProt Q9UDY8); test: FRET or BRET; DAmFRET (Distributed Amphifluoric FRET) in living S. cerevisiae: protein fused to mEos3.1, GAL promoter, about 16 hr in galactose, part of mEos3.1 photoconverted to the acceptor form, AmFRET against expression level by flow cytometry
[3] = target: T1, BCL10 R36E full-length fused to mEos3.1 (human), O95999; test: as above; conditions: remark: other sources report otherwise
T1 chain: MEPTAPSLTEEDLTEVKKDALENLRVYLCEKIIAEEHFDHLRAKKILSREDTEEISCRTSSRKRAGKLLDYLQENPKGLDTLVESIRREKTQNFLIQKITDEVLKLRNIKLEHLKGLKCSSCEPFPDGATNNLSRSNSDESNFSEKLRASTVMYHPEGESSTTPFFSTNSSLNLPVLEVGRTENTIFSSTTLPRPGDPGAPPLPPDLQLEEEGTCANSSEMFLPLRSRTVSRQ

[4] = target: BCL10 R58Q full-length fused to mEos3.1 (human) (UniProt O95999); test: as above
[5] = target: BCL10 R58L full-length fused to mEos3.1 (human) (UniProt O95999); test: as above
[6] = target: BCL10 E53R full-length fused to mEos3.1 (human) (UniProt O95999); test: as above
[7] = target: CARD9 CARD R18W fused to mEos3.1 (human) (UniProt Q9H257); test: as above
[8] = target: CARD9 CARD R35Q fused to mEos3.1 (human) (UniProt Q9H257); test: as above
[9] = target: CARD9 CARD R57H fused to mEos3.1 (human) (UniProt Q9H257); test: as above
[10] = target: CARD9 CARD G72S fused to mEos3.1 (human) (UniProt Q9H257); test: as above

## MALT1 full-length fused to mEos3.2 (from UniProt Q9UDY8 1-824)
[1]
  binding: no binding

## MALT1 full-length fused to mEos3.1 (from UniProt Q9UDY8 1-824)
[2]
  binding: no binding

B1: BCL10 R36E full-length fused to mEos3.1, O95999 1-233 (protein)
chain: T1 chain
[3]
  binding: binds

B2: BCL10 R58Q full-length fused to mEos3.1 (protein, UniProt O95999 1-233)
chain: T1 chain with E36R, R58Q
[4]
  binding: binds

B3: BCL10 R58L full-length fused to mEos3.1 (protein, UniProt O95999 1-233)
chain: T1 chain with E36R, R58L
[5]
  binding: binds

B4: BCL10 E53R full-length fused to mEos3.1 (protein, UniProt O95999 1-233)
chain: T1 chain with E36R, E53R
[6]
  binding: no binding

B5: CARD9 CARD R18W fused to mEos3.1 (domain or fragment, UniProt Q9H257 6-98)
chain: NDDECWSVLEGFWVTLTSVIDPSRITPYLRQCKVLNPDDEEQVLSDPNLVIRKRKVGVLLDILQRTGHKGYVAFLESLELYYPQLYKKVTGKE
[7]
  binding: no binding

B6: CARD9 CARD R35Q fused to mEos3.1 (domain or fragment, UniProt Q9H257 6-98)
chain: B5 chain with W13R, R30Q
[8]
  binding: no binding

B7: CARD9 CARD R57H fused to mEos3.1 (domain or fragment, UniProt Q9H257 6-98)
chain: B5 chain with W13R, R52H
[9]
  binding: no binding

B8: CARD9 CARD G72S fused to mEos3.1 (domain or fragment, UniProt Q9H257 6-98)
chain: B5 chain with W13R, G67S
[10]
  binding: no binding
